{
  "source": "patent US8962271B2",
  "about": "“Fructosyl peptidyl oxidase” (Roche Diagnostics Operations, Inc., priority 2009, dated 2015)",
  "system": "HbA1c",
  "experiment": "Measurement of Proteinase N-digested HbA1c, 4AA/TODB/POD",
  "type": "biochemical",
  "data": [
    {"molecule": "PnFPOX: fructosyl peptidyl oxidase derived from Phaeosphaeria nodorum, amino acid sequence SEQ ID NO:1, recombinant from E. coli (protein, listed as Phaeosphaeria nodorum) MAPSRANTSVIVVGGGGTIGSSTALHLVRSGYTPSNVTVLDAYPIPSSQSAGNDLNKIMGVSLRNPVDLQLALEARQMWNEDELFKKFFHNTGRLDCAHGEKDIADLKSGYQALVDAGLDATNEWLDSEDEILKRMPLLSRDQIKGWKAIFSKDGGWLAAAKAINAVGEYLRDQGVRFGFYGAGSFKAPLLAEGVCIGVETVDGTRYYADKVVLAAGAWSPTLVELHEQCVSKAWVYGHIQLTPEEAARYKNSPVVYNGDVGFFFEPNEHGVIKVCDEFPGFTRFKMHQPFGAKAPKRISVPRSHAKHPTDTIPDASDVSIRRAIATFMPQFKNKKMFNQAMCWCTDTADAALLICEHPEWKNFVLATGDSGHSFKLLPNIGKHVVELLEGTLADDLAHAWRWRPGSGDALKSRRSAPAKDLADMPGWNHDKPRANL", "values": [
      {"measurement": "FVH detection from Hb", "setting": "De-heme Hb sample 300 μM digested with Proteinase N, in words", "result": "not detected"},
      {"measurement": "FVH detected", "setting": "De-heme HbA1c sample 300 μM digested with Proteinase N", "result": 350, "unit": "µM"}
    ]}
  ]
}
